Assay [1] addresses T1, Flag-GC (UniProt P02774).
T1 sequence: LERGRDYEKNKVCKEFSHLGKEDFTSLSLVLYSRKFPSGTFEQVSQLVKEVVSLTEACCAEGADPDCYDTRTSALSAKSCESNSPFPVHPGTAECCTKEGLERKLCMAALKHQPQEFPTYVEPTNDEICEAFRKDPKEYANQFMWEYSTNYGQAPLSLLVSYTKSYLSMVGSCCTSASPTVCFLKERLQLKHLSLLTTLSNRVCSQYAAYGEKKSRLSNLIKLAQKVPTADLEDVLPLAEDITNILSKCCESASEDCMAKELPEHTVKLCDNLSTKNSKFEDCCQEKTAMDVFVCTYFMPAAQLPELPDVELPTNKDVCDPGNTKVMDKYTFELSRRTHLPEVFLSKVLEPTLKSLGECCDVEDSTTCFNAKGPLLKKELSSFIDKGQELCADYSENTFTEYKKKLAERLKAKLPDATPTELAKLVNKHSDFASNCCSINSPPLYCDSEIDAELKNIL
The experiment in a line: affinity purification with mass spectrometry.

Amino acid sequences for entries named in this document (tags omitted).
UniProt Q9UHP3: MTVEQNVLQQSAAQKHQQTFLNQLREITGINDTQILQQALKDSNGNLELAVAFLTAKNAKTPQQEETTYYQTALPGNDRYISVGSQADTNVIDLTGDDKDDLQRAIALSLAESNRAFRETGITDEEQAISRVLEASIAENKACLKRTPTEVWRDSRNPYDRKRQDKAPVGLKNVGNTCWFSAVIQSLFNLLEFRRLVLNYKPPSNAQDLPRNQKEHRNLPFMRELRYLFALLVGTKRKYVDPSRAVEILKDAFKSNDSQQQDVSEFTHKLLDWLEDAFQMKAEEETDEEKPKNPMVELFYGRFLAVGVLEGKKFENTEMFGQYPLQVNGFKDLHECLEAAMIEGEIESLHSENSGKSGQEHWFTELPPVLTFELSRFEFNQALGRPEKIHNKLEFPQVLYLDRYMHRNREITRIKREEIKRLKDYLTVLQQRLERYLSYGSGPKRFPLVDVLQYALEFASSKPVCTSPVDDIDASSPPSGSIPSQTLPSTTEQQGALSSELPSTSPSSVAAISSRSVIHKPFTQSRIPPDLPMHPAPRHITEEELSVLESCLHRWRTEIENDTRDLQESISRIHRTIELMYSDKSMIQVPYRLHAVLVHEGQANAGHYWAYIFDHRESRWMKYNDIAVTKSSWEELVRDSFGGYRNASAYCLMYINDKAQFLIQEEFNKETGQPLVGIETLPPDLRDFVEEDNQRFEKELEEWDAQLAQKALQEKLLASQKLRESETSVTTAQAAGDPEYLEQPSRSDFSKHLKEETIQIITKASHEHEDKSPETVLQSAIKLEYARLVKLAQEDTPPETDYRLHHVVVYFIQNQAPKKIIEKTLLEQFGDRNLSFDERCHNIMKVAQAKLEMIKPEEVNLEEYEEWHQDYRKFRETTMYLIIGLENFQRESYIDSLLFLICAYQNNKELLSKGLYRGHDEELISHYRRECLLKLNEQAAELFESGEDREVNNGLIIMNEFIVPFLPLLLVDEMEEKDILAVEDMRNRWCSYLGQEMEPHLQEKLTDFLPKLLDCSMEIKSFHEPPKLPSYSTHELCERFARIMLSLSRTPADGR

For assay [2], the target named is T1, Flag-GC. Briefly: affinity purification with mass spectrometry. This is another data set of the same source.

Where two headings read alike, the source gives them in different places. These are yes or no findings as the source states them, for the method shown. Binding seen in cells or lysates may run through a third protein. A yes stands for co-enrichment or nearness to the bait. Other partners may have been found. Where a sequence is shown, tags or fusion partners need not be part of it.

Regarding “USP25 (from UniProt Q9UHP3 1-1055) (enzyme)”, in the assay with Flag-GC [1], the binding result is listed as “binds”.

B1: DNase1L3 (endogenous, PLC-PRF-5 cells) (enzyme, UniProt Q13609 21-305)
chain: MRICSFNVRSFGESKQEDKNAMDVIVKVIKRCDIILVMEIKDSNNRICPILMEKLNRNSRRGITYNYVISSRLGRNTYKEQYAFLYKEKLVSVKRSYHYHDYQDGDADVFSREPFVVWFQSPHTAVKDFVIIPLHTTPETSVKEIDELVEVYTDVKHRWKAENFIFMGDFNAGCSYVPKKAWKNIRLRTDPRFVWLIGDQEDTTVKKSTNCAYDRIVLRGQEIVSSVVPKSNSVFDFQKAYKLTEEEALDVSDHFPVEFKLQSSRAFTNSKKSVTLRKKTKSKRS
For B1, the binding result with Flag-GC [2] is listed as “binds”.

The values above are taken from article doi:10.1101/2023.08.30.555532.
